{"source": "patent US20190231745A1", "about": "“INHIBITORS OF T CELL RECEPTOR AND USES THEREOF” (Consejo Superior De Investigaciones Cientificas, priority 2017, published 2019)", "key": {"[1]": {"test_system": "EAE in C57BL/6 mice immunized with MOG35-55", "assay": "EAE model, prophylactic treatment", "format": "in vivo, mouse"}, "[2]": {"test_system": "IMQ-induced psoriasis in BALB/c mice", "assay": "IMQ model of psoriasis", "format": "in vivo, mouse", "settings": "10 mg/kg oral daily for 5 days"}, "[3]": {"target": "T1, c-Cb1 binding to SH3.1(Nck) (Homo sapiens, UniProt P16333)", "T1 construct": "c-Cbl from Jurkat T cell lysate", "assay": "GST pull-down, c-Cb1 binding to SH3.1(Nck)"}, "[4]": {"target": "T2, TCR binding to SH3(Eps8L1) (Homo sapiens, UniProt Q8TE68)", "T2 construct": "TCR from Jurkat T cell lysate", "T2 sequence (Q8TE68 478-537 limits assumed)": "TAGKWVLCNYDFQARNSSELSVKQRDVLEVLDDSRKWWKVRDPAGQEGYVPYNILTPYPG", "assay": "GST pull-down, TCR binding to SH3(Eps8L1)", "settings": "even at 10 mM"}, "[5]": {"test_system": "human T cells stimulated with anti-CD3", "assay": "qRT-PCR of selected genes", "format": "cell-based", "settings": "anti-CD3 4 hours"}, "[6]": {"test_system": "human T cell lymphoblasts", "assay": "IL-2-dependent proliferation of T lymphoblasts", "format": "cell-based", "settings": "concentrations up to 10 μM"}, "[7]": {"test_system": "human peripheral blood mononuclear cells stimulated with anti-CD3", "assay": "TCR-triggered cytokine release", "format": "cell-based"}, "[8]": {"test_system": "Pak1 binding to the Nck(SH3.2) and WASP binding to the Nck(SH3.3)", "assay": "GST pull-down, other SH3 domains", "settings": "Pak1-Nck(SH3.2), WASP-Nck(SH3.3)"}, "[9]": {"target": "CD3ε PRS peptide binding to immobilized SH3.1(Nck1) domain (Homo sapiens, UniProt P16333)", "assay": "Surface plasmon resonance", "settings": "in the presence of 1 nM AX-024", "experimental": "FIG. 2. Target specificity of AX-024. […] The experiment was repeated three times. […] RUs, response units.\nHBS-EP was used as the running buffer (10 mM HEPES [pH 7.4], 150 mM NaCl, 3 mM EDTA, 0.005% [v/v] Surfactant P20). Immobilization of the GST-Nck1(SH3.1) purified recombinant protein (final concentration 30 μg/ml) was performed by the amino coupling strategy using sodium acetate (10 mM) at pH 4.5 and 150 μL of a solution of EDC/NHS (v/v), with optimum immobilization achieved at approximately 5000 resonance units. For interaction experiments, increasing concentrations of the CD3ε peptide […] and AX-024 were used on the same chip. In all cases, the flow rate was […]. After each interaction, 2.5 M glycine (pH 2) was used to regenerate the surface, and the analyte response after regeneration was constant after repeated injections in all the experiments and within ±10% of the response following the first injection."}, "[10]": {"test_system": "CD3ζ phosphorylation at Tyr142 in Jurkat cells", "assay": "Western blot of CD3ζ tyrosine phosphorylation", "format": "cell-based", "settings": "anti-CD3, 5 min"}, "naïve human CD4+ T cells": {"test_system": "naïve human CD4+ T cells", "assay": "Differentiation of human TH cells in vitro", "format": "cell-based"}, "human blood T cells": {"test_system": "human blood T cells", "assay": "T cell proliferation induced by PMA+ionomycin", "format": "cell-based"}, "[11]": {"test_system": "ZAP70 phosphorylation at Tyr319", "assay": "Phosphoflow analysis of ZAP70 phosphorylation", "format": "cell-based, human", "settings": "anti-CD3, 5 min"}, "[12]": {"test_system": "OVA-induced allergic asthma in BALB/c mice", "assay": "OVA-induced allergic asthma model", "format": "in vivo, mouse", "settings": "50 mg/kg ip twice"}, "[13]": {"test_system": "human fibroblast cell migration", "assay": "Fibroblast wound-healing (scratch) assay", "format": "cell-based"}, "SH3.1(Nck1)": {"target": "T3, SH3.1(Nck1) (Homo sapiens, UniProt P16333)", "T3 construct": "made in house", "assay": "NMR ligand/protein interaction study", "format": "binding", "settings": "titration with hydrochloride salt"}, "[14]": {"test_system": "EAE in MOG-immunized mice", "assay": "EAE model, therapeutic treatment", "format": "in vivo, mouse", "settings": "for neurological symptoms and weight after treatment was discontinued at day 26: after discontinuation; for neurological symptoms and weight during treatment: daily oral doses day 13 to day 26"}, "[15]": {"settings": "10 mg/kg oral daily for the first 10 days"}, "[16]": {"settings": "10 mg/kg oral daily, 6 days after MOG immunization"}}, "note": "At least one structure is not confirmed: it was looked up by name or label, or the drawing left a doubt."}
{"smiles": "COc1ccc2c(c1)C(c1ccc(F)cc1)=C(CN1CCCC1)CO2", "note": "[AX-024]", "values": [{"measurement": "neurological symptoms and weight loss induced by MOG immunization", "setting": "[1]; [15]", "result": "significantly diminished"}, {"measurement": "recovery from neurological impairment and weight loss", "setting": "[1]; [15]", "result": "symptom-free by day 30"}, {"measurement": "percentage of FOXP3 CD4+ T cells in draining lymph nodes", "setting": "[1]; [16]", "result": "significant increase"}, {"measurement": "percentage of double-positive IFN-γ+ FOXP3+ cells", "setting": "[1]; [16]", "result": "clear increase"}, {"measurement": "percentage of total IFN-γ+ and IL-17 CD4+ T cells in draining lymph nodes", "setting": "[1]; [16]", "result": "no significant differences"}, {"measurement": "infiltration of cerebellum and spinal cord by CD4+ T cells and macrophages", "setting": "[1]; day 33", "result": "but not of the AX-024-treated group"}, {"measurement": "prevention of weight loss and neurological symptoms compared with glatiramer acetate and cladribine", "setting": "[1]; single daily doses for 10 days, i.p.", "result": "more effective than both control drugs"}, {"measurement": "TNFa, IL-1b, CXCL2, S100A8 and S100A9 in skin samples (qRT-PCR)", "setting": "[2]", "result": "strong reduction"}, {"measurement": "epidermal and dermal thickness (H&E)", "setting": "[2]", "result": "significantly reduced thickening of both skin layers"}, {"measurement": "skin infiltration by granulocytes (Ly6G+), CD11b+ myeloid cells and CD8+ T lymphocytes (flow cytometry)", "setting": "[2]", "result": "inhibited skin infiltration"}, {"measurement": "subepidermal foci of infiltrating granulocytes (Ly6G immunostaining)", "setting": "[2]", "result": "not in the control or AX-024 groups"}, {"measurement": "scales and skin thickening (clinical scoring)", "setting": "[2]; versus vehicle", "result": "less scales and reduced skin thickening"}, {"measurement": "c-Cb1 binding to SH3.1(Nck)", "setting": "[3]", "result": "not affected"}, {"measurement": "TCR binding to SH3(Eps8L1)", "setting": "[4]", "result": "did not affect binding"}, {"measurement": "TCR-induced expression of CXCL9, CXCL10 and EGR3", "setting": "[5]; 1 nM", "result": "abrogated"}, {"measurement": "response of IL-2 and IFN-γ expression", "setting": "[5]", "result": "bimodal, with stronger inhibition at lower concentrations than at higher concentrations"}, {"measurement": "IL-2-dependent T lymphoblast proliferation", "setting": "[6]", "result": "Neither AX-024 nor the parental compound AX-000 inhibited"}, {"measurement": "inhibition of cytokine release compared with AX-000", "setting": "[7]", "result": "much more potent inhibitor"}, {"measurement": "IL-6, TNFa, IFN-γ, IL-10 and IL-17A production", "setting": "[7]; 10 nM", "result": "strongly hindering"}, {"measurement": "interactions of other SH3 domains with polyproline sequences not mediated by DY pockets", "setting": "[8]", "result": "not affected"}, {"measurement": "decrease in affinity of the CD3ε peptide", "setting": "[9]", "result": 173, "unit": "fold"}, {"measurement": "phosphorylation of CD3ζ at Tyr142", "setting": "[10]", "result": "inhibited phosphorylation"}, {"measurement": "differentiation toward IFN-γ-, IL-2- and IL17A-producing cells", "setting": "naïve human CD4+ T cells; 1 nM, TH1-, TH2-, TH17-polarizing conditions", "result": "inhibited the differentiation"}, {"measurement": "IFN-γ and TNFα secretion by TH1 cells differentiated in presence of drug", "setting": "naïve human CD4+ T cells; TCR triggering versus PMA+ionomycin", "result": "secreted less IFN-γ and less TNFα"}, {"measurement": "differentiation toward IL-4-producing and FOXP3-expressing cells", "setting": "naïve human CD4+ T cells; TH2-favoring and Treg-favoring conditions", "result": "increased differentiation"}, {"measurement": "Treg function in assay of naïve CD4+ T cell proliferation", "setting": "naïve human CD4+ T cells; Treg-polarizing conditions, 1 nM", "result": "pro-differentiation effect of AX-024 toward Treg was evident"}, {"measurement": "T cell proliferation induced by PMA and ionomycin", "setting": "human blood T cells", "result": "unaffected"}, {"measurement": "phosphorylation of ZAP70 at Tyr319", "setting": "[11]", "result": "inhibited phosphorylation"}, {"measurement": "number of airway inflammatory cells (FMT and BALF)", "setting": "[12]", "result": "significantly diminished"}, {"measurement": "release of IL-4 into BALF", "setting": "[12]", "result": "significantly inhibited"}, {"measurement": "fibroblast migration in a wound-healing assay", "setting": "[13]", "result": "did not affect"}, {"measurement": "binding to the Nck SH3.1 domain by NMR chemical shift changes", "setting": "SH3.1(Nck1)", "result": "bound to the DY pocket of the Nck SH3.1 domain"}, {"measurement": "neurological symptoms and weight after treatment was discontinued at day 26", "setting": "[14]", "result": "maintained low clinical scores and kept gaining weight even up to day 52"}, {"measurement": "neurological symptoms and weight during treatment", "setting": "[14]", "result": "rapidly recovered from neurological symptoms and gained weight"}]}
{"smiles": "CCCCCCCCc1ccc(CCC(N)(CO)CO)cc1", "note": "[fingolimod]", "values": [{"measurement": "neurological symptoms and weight after treatment was discontinued at day 26", "setting": "[14]", "result": "began worsening in the fingolimod group, reaching the values of the vehicle group by day 35"}, {"measurement": "neurological symptoms and weight during treatment", "setting": "[14]", "result": "rapidly recovered from neurological symptoms and gained weight"}, {"measurement": "time of reaching a score of 0 relative to the AX-024 group", "setting": "[14]; daily oral doses from day 13", "result": "one week earlier"}]}
